One molecule from paper PMC11106239 can be followed below.

This test deals with T1, recombinant mouse Reg4 protein (mouse) (UniProt Q9D8G5).
T1 sequence: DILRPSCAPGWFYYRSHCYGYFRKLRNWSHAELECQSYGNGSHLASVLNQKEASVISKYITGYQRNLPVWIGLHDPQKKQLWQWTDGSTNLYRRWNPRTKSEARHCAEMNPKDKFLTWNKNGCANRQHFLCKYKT
The test can be described thus: pull-down; called co-immunoprecipitation by the paper: 30 mg protein lysate from mouse pancreas incubated with rReg4 protein (100 µg/ml) at 4 °C overnight; captured on Ni-NTA-agarose, eluted; Western blot with anti-EXTL3, anti-REG4 and anti-His antibodies; only the target purified. A general note: In western blotting, separated proteins are transferred to a membrane and probed.

These are yes or no findings as the source states them, for the method shown. In cells and extracts the contact can be indirect. Some binding calls cover weakened binding; strength is not graded here.

B1: exostosin-like glycosyltransferase 3 (Extl3) (receptor, UniProt Q9WVL6 1-918)
chain: MTGYTMLRNGGVGNGGQTCMLRWSNRIRLTWLSFTLFIILVFFPLIAHYYLTTLDEADEAGKRIFGPRAGSELCEVKHVLDLCRIRESVSEELLQLEAKRQELNSEIAKLNLKIEACKKSIENAKQDLLQLKNVISQTEHSYKELMAQNQPKLSLPIRLLPEKDDAGLPPPKVTRGCRLHNCFDYSRCPLTSGFPVYVYDSDQFAFGSYLDPLVKQAFQATVRANVYVTENAAIACLYVVLVGEMQEPTVLRPADLEKQLFSLPHWRTDGHNHVIINLSRKSDTQNLLYNVSTGRHVAQSTFYAAQYRAGFDLVVSPLVHAMSEPNFMEIPPQVPVKRKYLFTFQGEKIESLRSSLQEARSFEEEMEGDPPADYDDRIIATLKAVQDSKLDQVLVEFTCKNQPKPSLPTEWALCGEREDRLELLKLSTFALIITPGDPHLLISSGCATRLFEALEVGAVPVVLGEQVQLPYHDMLQWNEAALVVPKPRVTEVHFLLRSLSDSDLLAMRRQGRFLWETYFSTADSIFNTVLAMIRTRIQIPAAPIREEVAAEIPHRSGKAAGTDPNMADNGDLDLGPVETEPPYASPKYLRNFTLTVTDCYRGWNSAPGPFHLFPHTPFDPVLPSEAKFLGSGTGFRPIGGGAGGSGKEFQAALGGNVQREQFTVVMLTYEREEVLMNSLERLNGLPYLNKVVVVWNSPKLPSEDLLWPDIGVPIMVVRTEKNSLNNRFLPWNEIETEAILSIDDDAHLRHDEIMFGFRVWREARDRIVGFPGRYHAWDIPHQSWLYNSNYSCELSMVLTGAAFFHKYYAYLYSYVMPQAIRDMVDEYINCEDIAMNFLVSHITRKPPIKVTSRWTFRCPGCPQALSHDDSHFHERHKCINFFVKVYGYMPLLYTQFRVDSVLFKTRLPHDKTKCFKFI
Turning to B1, the binding entry is “binds”.
